Assay results from PubChem BioAssay AID504408 (Broad Institute, 2011).
Out of some 300,000 compounds screened, about 5,200 (1.7%) were called active. All entries are inconclusive by the source's own rule. Clear calls are listed elsewhere.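 Rule for the calls: active = mean replicate activation of at least 50% with a set share of replicates each reaching 50%; inconclusive = only one of those two conditions met; inactive = mean below 50% and too few replicates reaching it.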

experiment: HSF-1 activators, primary screen, NIH3T3-HGL cells, MG132 stress, luminescence, single point (AID 504408); conditions: NIH3T3-HGL HSF-1 luciferase reporter, MG132, 8 h; at 9 µM; active compounds read high; 100% = twice DMSO control signal;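 note: 0% = median of the neutral control wells and 100% = twice that signal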

Structure (SMILES)	activation
COc1ccc(OP(C)(=O)Nc2ccccc2Br)cc1 (configuration not stated)	inconclusive: 50%
CP(=O)(OCCOc1ccccc1)OCCOc1ccccc1	inconclusive: 50.9%
